Assay results reported in the M2OR odorant receptor database.
The list shows a part of the results, in another mix than the full data. Calls are pooled over several reports, among them a noisy single-well screen. This is one part of the list.

Protein sequences, listed by entry. Tags and fused reporters are not part of them. Lines headed by an entry give the natural chain unless they say otherwise; changes in a name come on top.
UniProt Q9H208: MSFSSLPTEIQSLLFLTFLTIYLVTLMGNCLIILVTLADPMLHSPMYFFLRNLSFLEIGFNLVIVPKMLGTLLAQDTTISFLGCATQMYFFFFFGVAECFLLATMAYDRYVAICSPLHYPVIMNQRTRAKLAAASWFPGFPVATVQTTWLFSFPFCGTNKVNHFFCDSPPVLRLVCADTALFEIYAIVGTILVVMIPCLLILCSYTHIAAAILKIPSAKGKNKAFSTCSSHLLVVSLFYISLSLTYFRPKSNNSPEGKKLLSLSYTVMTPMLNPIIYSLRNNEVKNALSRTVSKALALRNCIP

What was measured:
Conditions in all cases: stereoisomer not certain
[1] = tested on: T1, O52R1
T1 sequence (whole entry): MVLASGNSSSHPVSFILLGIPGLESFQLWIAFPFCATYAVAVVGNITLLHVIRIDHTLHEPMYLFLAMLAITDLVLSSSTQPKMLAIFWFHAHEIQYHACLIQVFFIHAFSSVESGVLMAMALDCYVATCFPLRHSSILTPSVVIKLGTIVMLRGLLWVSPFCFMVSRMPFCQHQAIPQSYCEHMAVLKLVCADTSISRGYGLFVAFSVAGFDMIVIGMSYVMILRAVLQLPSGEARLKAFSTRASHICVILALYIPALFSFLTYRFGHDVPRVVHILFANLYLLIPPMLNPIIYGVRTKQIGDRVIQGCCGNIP
Summary of the method: (§1)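 Values were gathered from published papers (main text and supplementary material), with extra details requested from the original authors when needed, and checked for typos and inconsistencies. Each receptor–molecule pair is called responsive (active) if the original authors judged the measured signal statistically different from baseline, and non-responsive (inactive) otherwise. Assay methods varied by source, often transient mammalian cell-line luciferase assays. Recorded details include cell line, G-protein, co-transfected protein and tags.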

[2] = tested on: T2, O52W1
T2 sequence (whole entry): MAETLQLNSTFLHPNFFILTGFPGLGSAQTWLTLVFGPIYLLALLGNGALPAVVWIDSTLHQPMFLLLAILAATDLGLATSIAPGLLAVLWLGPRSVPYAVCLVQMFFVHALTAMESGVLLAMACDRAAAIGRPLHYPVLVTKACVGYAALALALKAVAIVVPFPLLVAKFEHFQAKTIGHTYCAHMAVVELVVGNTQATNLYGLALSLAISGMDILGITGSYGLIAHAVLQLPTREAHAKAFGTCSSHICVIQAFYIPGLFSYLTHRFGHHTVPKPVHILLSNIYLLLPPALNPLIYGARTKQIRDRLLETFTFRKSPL
Summary of the method: as §1

[3] = tested on: T3, O56A3
T3 sequence (whole entry): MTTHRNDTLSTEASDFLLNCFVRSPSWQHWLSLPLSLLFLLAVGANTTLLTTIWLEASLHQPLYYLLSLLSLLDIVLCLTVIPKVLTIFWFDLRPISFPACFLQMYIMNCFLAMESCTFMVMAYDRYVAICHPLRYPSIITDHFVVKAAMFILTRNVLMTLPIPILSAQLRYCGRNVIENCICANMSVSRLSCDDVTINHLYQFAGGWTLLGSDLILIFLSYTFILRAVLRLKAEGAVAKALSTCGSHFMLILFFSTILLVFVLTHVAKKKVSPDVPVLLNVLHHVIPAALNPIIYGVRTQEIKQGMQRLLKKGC
Summary of the method: as §1

[4] = tested on: T4, O56B1
T4 sequence (whole entry): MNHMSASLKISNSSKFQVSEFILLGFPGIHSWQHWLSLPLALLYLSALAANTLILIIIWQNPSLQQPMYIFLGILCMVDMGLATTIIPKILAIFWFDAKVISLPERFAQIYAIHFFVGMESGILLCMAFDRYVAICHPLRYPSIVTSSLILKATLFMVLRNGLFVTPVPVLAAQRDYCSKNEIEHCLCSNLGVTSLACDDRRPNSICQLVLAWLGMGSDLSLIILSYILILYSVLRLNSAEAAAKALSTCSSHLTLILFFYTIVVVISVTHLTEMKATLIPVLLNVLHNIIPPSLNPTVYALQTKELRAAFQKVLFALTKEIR
Summary of the method: as §1

[5] = tested on: T5, O56B4
T5 sequence (whole entry): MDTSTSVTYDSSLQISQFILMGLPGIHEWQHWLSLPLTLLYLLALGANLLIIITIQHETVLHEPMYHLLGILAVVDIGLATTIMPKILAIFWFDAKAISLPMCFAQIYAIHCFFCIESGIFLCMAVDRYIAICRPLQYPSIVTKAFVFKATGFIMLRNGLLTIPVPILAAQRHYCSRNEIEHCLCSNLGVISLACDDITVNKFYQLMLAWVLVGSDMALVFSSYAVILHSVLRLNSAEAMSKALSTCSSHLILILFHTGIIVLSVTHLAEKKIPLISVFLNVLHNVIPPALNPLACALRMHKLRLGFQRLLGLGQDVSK
Summary of the method: as §1

[6] = tested on: T6, O5AC2
T6 sequence (whole entry): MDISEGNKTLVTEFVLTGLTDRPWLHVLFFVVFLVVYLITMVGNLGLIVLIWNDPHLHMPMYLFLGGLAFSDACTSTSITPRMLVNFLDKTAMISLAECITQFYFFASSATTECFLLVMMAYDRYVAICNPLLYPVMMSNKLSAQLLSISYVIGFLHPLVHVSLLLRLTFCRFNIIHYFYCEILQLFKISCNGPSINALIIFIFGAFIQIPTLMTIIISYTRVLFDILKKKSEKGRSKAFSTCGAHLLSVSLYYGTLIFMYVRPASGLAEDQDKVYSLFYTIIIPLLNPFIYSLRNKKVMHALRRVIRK
Summary of the method: as §1

[7] = tested on: T7, O5AK2
T7 sequence (whole entry): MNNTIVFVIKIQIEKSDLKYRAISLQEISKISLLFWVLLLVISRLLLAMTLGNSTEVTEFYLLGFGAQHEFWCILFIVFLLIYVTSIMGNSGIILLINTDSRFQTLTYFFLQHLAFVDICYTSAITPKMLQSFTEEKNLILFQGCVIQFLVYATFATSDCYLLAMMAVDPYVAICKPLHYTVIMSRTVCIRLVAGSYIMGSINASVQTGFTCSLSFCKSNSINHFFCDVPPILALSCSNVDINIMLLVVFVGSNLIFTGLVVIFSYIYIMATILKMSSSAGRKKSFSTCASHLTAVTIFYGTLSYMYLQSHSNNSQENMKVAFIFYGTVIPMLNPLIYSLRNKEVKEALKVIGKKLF
Summary of the method: as §1

[8] = tested on: T8, O5AK3
T8 sequence (whole entry): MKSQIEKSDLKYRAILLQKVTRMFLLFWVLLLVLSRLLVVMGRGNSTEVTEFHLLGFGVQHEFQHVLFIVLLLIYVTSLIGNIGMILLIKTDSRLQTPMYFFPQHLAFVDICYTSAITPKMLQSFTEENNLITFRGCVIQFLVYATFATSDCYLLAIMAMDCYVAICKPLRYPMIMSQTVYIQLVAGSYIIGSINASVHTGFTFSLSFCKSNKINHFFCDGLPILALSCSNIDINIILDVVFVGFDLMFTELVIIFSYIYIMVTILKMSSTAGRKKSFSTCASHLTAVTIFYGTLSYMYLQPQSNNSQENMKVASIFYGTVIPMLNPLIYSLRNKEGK
Summary of the method: as §1

[9] = tested on: T9, O5AL1
T9 sequence (whole entry): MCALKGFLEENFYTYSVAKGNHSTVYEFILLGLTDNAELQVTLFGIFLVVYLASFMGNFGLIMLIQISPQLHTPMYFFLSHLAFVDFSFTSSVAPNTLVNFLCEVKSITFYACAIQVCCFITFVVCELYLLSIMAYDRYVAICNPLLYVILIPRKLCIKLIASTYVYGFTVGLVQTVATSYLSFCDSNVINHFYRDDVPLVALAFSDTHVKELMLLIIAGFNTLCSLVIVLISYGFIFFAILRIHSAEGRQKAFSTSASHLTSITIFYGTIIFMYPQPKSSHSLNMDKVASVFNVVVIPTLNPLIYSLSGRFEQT
Summary of the method: as §1

[10] = tested on: T10, O5AP2
T10 sequence (whole entry): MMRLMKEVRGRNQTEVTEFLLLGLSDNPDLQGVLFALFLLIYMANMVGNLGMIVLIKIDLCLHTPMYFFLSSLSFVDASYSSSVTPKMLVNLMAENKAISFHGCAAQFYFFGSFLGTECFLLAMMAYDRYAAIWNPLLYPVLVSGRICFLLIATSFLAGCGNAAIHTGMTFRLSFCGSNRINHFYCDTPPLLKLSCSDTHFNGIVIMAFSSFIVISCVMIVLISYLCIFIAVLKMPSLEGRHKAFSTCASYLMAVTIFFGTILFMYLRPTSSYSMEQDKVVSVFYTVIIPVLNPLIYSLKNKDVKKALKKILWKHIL
Summary of the method: as §1

[11] = tested on: T11, O5AU1
T11 sequence (whole entry): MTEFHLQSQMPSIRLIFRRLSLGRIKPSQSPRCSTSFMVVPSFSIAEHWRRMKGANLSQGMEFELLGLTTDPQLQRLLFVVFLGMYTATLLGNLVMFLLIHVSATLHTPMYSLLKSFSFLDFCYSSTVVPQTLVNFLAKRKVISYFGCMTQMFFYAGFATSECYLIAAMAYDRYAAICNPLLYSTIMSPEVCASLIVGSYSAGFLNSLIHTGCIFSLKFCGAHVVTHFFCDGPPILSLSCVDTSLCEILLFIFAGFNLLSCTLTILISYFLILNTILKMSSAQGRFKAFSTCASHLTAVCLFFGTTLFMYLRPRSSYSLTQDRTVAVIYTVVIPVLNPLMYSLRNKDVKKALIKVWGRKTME
Summary of the method: as §1

[12] = tested on: T12, O5H14
T12 sequence (whole entry): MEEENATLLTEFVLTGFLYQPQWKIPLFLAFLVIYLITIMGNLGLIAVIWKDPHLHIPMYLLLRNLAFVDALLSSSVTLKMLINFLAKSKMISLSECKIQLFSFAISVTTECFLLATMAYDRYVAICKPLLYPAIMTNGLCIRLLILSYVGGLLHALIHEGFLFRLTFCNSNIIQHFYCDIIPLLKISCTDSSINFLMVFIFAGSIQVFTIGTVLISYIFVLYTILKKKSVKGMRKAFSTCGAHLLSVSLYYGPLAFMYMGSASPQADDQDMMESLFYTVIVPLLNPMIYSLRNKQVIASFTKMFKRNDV
Summary of the method: as §1

[13] = tested on: T13, O6C68
T13 sequence (whole entry): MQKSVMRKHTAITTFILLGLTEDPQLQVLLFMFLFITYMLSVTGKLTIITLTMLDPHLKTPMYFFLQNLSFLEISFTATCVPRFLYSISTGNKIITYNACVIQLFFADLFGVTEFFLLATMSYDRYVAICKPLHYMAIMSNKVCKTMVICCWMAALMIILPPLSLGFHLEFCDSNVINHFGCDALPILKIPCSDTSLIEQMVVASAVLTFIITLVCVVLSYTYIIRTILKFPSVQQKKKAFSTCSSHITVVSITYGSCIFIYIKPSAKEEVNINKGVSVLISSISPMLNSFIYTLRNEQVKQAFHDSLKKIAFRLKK
Summary of the method: as §1

[14] = tested on: T14, O6C70
T14 sequence (whole entry): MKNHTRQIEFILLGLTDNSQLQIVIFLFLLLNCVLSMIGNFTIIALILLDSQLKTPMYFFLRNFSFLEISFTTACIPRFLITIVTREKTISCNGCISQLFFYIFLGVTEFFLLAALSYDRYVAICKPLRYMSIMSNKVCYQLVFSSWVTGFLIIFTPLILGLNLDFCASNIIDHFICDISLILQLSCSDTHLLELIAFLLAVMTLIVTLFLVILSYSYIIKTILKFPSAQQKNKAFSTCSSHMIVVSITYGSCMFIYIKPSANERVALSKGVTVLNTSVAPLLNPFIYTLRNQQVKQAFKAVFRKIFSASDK
Summary of the method: as §1

[15] = tested on: T15, O7E24
T15 sequence (whole entry): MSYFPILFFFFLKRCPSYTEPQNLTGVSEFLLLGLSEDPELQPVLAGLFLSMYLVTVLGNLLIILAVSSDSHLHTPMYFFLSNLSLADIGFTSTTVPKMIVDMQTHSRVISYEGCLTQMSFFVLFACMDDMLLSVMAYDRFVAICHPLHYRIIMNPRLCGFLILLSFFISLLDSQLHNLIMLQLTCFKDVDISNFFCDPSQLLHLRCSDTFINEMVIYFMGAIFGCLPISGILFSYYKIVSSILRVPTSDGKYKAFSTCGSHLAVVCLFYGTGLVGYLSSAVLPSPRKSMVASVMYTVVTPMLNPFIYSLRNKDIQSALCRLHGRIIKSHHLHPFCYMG
Summary of the method: as §1

[16] = biological target: T16, OR10A3 (Homo sapiens) (UniProt P58181)
T16 sequence (whole entry): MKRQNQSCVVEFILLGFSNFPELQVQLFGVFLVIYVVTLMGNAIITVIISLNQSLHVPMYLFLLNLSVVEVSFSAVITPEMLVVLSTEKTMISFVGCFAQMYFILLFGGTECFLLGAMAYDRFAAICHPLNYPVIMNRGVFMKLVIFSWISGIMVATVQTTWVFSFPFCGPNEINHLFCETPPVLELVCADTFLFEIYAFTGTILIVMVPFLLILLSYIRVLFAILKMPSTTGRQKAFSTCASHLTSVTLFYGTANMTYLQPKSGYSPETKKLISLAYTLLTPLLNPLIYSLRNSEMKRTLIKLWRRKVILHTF
Summary of the method: as §1

[17] = biological target: OR10A2 (Homo sapiens) (UniProt Q9H208)
Summary of the method: as §1

Measured: odorant receptor agonist call

C=CCc1ccc(OC)c(OC)c1
inactive: [1] | [2] | [3] | [4] | [5] | [6] | [7] | [8] | [9] | [10] | [11] | [12] | [13] | [14] | [15] | [16]

CC12C=CCC1C1CCC3CC(=O)CCC3(C)C1CC2 (configuration not stated)
active: [3] | [4] | [5] | [10]
inactive: [1] | [2] | [6] | [7] | [8] | [9] | [11] | [12] | [13] | [14] | [15] | [17] | [16]

O=CCc1ccccc1
active: [13]
inactive: [1] | [2] | [3] | [4] | [5] | [6] | [7] | [8] | [9] | [10] | [11] | [12] | [14] | [15] | [16]

CC(C)=CCCC(C)=CC=O
active: [2] | [13]
inactive: [1] | [3] | [4] | [5] | [6] | [7] | [8] | [9] | [10] | [11] | [12] | [14] | [15] | [16]

c1cnccn1
inactive: [1] | [2] | [3] | [4] | [5] | [6] | [7] | [8] | [9] | [10] | [11] | [12] | [13] | [14] | [15] | [16]

COc1cc(C=O)ccc1O
inactive: [1] | [2] | [3] | [4] | [5] | [6] | [7] | [8] | [9] | [10] | [11] | [12] | [13] | [14] | [15] | [16]
